The subject of the test is TLR2 induced IL-6 in peripheral blood mononuclear cells (PBMCs). In words: PBMC TLR2 Induced IL-6 Assay. The format is cell-based. The following applies: Homo sapiens, read-out: Cell EC50. The procedure:
PBMC TLR2 Induced IL-6 Assay
Peripheral blood mononuclear cells (PBMCs) were isolated from human blood containing the anti-coagulant EDTA (2.5 mM) by centrifugation over a FICOLL® gradient. PBMCs (250000 cells/well) were cultured in assay media (RPMI with 10% heat inactivated FCS) with compounds for 30 minutes at 37° C. in a 5% CO2 incubator. Following pretreatment with compounds, cells were stimulated for 5 hours with 10 µg/ml lipoteichoic acid (Invivogen, San Diego, Calif.), a TLR2 agonist. At the end of the culture, plates were centrifuged at 1800 rpm for 10 minutes to pellet the cells. Supernatants were harvested and analyzed for IL-6 levels by ELISA (BD Biosciences, San Jose, Calif.).

Molecules are shown by their SMILES.

For orientation: EC50 means the concentration giving half of the maximal effect. `CC(C)(O)[C@H](F)CNC(=O)c1cnc(-n2cnc3cc(C#N)cnc32)cc1NC1COC1` [Example 333, (R)-6-(6-Cyano-3H-imidazo[4,5-b]pyridin-3-yl)-N-(2-fluoro-3-hydroxy-3-methylbutyl)-4-(oxetan-3-ylamino)nicotinamide]: the EC50 was determined as 524 nM.

Values taken from US9169252B2 (BRISTOL-MYERS SQUIBB COMPANY, priority 2014, dated 2015).
